Reference: PubChem BioAssay AID588590 (National Center for Advancing Translational Sciences (NCATS), 2011)
The whole screen tested about 390,000 compounds, of which about 4,000 (1%) were called active. This list was built around the results that the source calls inconclusive (neither active nor inactive); the mix of calls is not that of the screen. The call rests on the fitted dose curve; in most records, active means well fitted inhibition curve with a large enough effect; inconclusive means small, poorly fitted or top-dose-only effect, or another doubt; inactive means no such curve, though single readings can be large or run the other way. Potencies beside an inconclusive call are fits to weak or partial responses and may not hold up.

Chains of the proteins cited; added tags and fusions are not shown. Lines headed by an entry give the natural chain unless they say otherwise; changes in a name come on top.
UniProt Q9UNA4: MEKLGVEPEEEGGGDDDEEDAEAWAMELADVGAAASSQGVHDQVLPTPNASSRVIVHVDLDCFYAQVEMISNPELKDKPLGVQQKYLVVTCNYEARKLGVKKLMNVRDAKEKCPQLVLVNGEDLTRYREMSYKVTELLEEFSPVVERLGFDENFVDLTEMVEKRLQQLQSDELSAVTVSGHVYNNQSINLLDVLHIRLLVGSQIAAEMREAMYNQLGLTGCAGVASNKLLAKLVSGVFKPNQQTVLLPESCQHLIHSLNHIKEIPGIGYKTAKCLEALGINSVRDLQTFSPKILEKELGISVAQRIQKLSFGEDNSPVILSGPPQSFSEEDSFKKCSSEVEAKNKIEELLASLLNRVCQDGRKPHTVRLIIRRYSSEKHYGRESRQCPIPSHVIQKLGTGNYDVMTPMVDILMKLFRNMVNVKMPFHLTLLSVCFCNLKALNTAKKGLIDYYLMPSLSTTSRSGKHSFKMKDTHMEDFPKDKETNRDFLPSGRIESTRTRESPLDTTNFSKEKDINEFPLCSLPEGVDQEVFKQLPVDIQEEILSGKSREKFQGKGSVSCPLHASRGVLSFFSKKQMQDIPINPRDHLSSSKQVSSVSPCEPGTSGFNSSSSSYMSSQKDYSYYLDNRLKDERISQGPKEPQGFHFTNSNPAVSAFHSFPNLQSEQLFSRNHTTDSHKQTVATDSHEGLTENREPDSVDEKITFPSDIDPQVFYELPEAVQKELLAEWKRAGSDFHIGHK

The compounds below were run against DNA polymerase iota (Homo sapiens) (UniProt Q9UNA4) (assay: qHTS for Inhibitors of Polymerase Iota). Settings: Pol iota fluorescent replication assay, 10 min; series mostly up to 115 µM.
In short: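 Fluorescent replication assay read twice, at 0 min and 10 min after adding 50 nM (final) substrate. Enzyme (10 nM) and compounds were first incubated 15 min at room temperature; enzyme-free buffer wells were negative controls.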
Potency means the concentration at half of the fitted maximal effect.

Row | Structure (SMILES) | Potency
1 | C1CCC(c2nn3c(-c4n[nH]c5c4CCC5)nnc3s2)CC1 | inconclusive: 11.2 µM [inhibitor, full curve, poor fit]
2 | CCC(NC(=O)Nc1cc(OC)ccc1OC)c1c(-n2cccc2)sc2c1CCN(CC)C2 (stereo not drawn) | inactive
3 | CCc1ccc(C(=O)CN2C(=O)NC3(CCc4ccccc43)C2=O)cc1 (stereo not drawn) | inconclusive: 100 µM [inhibitor, partial curve, poor fit]
4 | CCN(C(=O)c1cc2c(=O)n3cccc(C)c3nc2s1)c1ccc(C)c(C)c1 | inconclusive: 89.1 µM [inhibitor, single point]
5 | N#Cc1ccc(CSc2nnc(NC(=O)c3ccc4ncsc4c3)s2)cc1 | inconclusive: 3.98 µM [inhibitor, full curve, poor fit]
6 | Cc1c(CNC2CCCCC2)c(C(=O)O)c(C)n1Cc1ccc(F)cc1 | inactive
7 | C=C1CCN([C@@H](CC(C)C)C(=O)NCCC(C)C)S(=O)(=O)c2ccccc21 | inconclusive: 17.8 µM [inhibitor, partial curve, poor fit]
8 | Cn1c(=O)c2cc(NC(=O)c3ccccc3Cl)c(=O)oc2n(C)c1=O | inconclusive: 5.01 µM [inhibitor, full curve, poor fit]
9 | COc1ccc(OC)c(C2=NOC(C(=O)Nc3cc(C)on3)C2)c1 (stereo not drawn) | inconclusive: 56.2 µM [inhibitor, partial curve, poor fit]
10 | CCCCCc1c2c(cc(O)c1C(=O)O)OC(=O)c1cc(C(=O)CCCC)c(OC)cc1O2 | inconclusive: 15.8 µM [inhibitor, full curve]
11 | CCC(=O)c1ccc(CCCCCC(=O)O)s1 | inconclusive: 39.8 µM [inhibitor, partial curve, poor fit]
12 | COc1ccc(CNC(=O)c2cc(=O)c3cc(C)ccc3o2)cc1 | inconclusive: 70.8 µM [inhibitor, partial curve, poor fit]
13 | Cc1cccc(N=Nc2c(N)n[nH]c2-c2ccc(Cl)cc2)c1 | inconclusive: 79.4 µM [inhibitor, single point]
14 | O=C(Nc1sccc1C(=O)N1CCOCC1)c1cccnc1 | inconclusive: 50.1 µM [inhibitor, partial curve]
15 | C/C=C\C=C\C(=O)N1CC2(CC(c3cccc(NC(=O)CC)c3)=NO2)C[C@H]1C(N)=O (stereo partly drawn) | inconclusive: 50.1 µM [inhibitor, partial curve, poor fit]
16 | Cc1oc2c(O)c(O)ccc2c(=O)c1-c1cnn(-c2ccccc2)c1 | inconclusive: 3.55 µM [inhibitor, full curve, poor fit]
17 | CCC1(CC)CNC(=O)NC1 | inactive
18 | O=C(Nc1cccc(Cl)c1)c1ccc2nc(Cc3ccccc3)oc2c1 | inactive
19 | CC(=O)N1CC[n+]2c(-c3ccc(Cl)cc3)csc21 | inconclusive: 14.1 µM [inhibitor, partial curve, poor fit]
20 | Cn1c(SCC(=O)c2ccc(F)cc2)nc2cccnc21 | inconclusive: 25.1 µM [inhibitor, single point]
21 | Cc1c(C#N)c(N)nc2c3c(sc12)NC(=O)CC3c1ccc(Cl)cc1 (stereo not drawn) | inactive
22 | COc1ccccc1C(=O)CC(=O)c1ccccc1 | inactive
23 | Oc1c(Cl)cc(CN2CCOCC2)c2cccnc12 | inconclusive: 8.91 µM [inhibitor, partial curve]

Gathered by group: those above with a cyano group
Row | Structure (SMILES) | Potency
5 | N#Cc1ccc(CSc2nnc(NC(=O)c3ccc4ncsc4c3)s2)cc1 | inconclusive: 3.98 µM [inhibitor, full curve, poor fit]
21 | Cc1c(C#N)c(N)nc2c3c(sc12)NC(=O)CC3c1ccc(Cl)cc1 (stereo not drawn) | inactive

Next compounds follow:

Row | Structure (SMILES) | Potency
24 | O=S(Cc1ccc(Cl)cc1)CC(O)COCc1ccc(Cl)cc1 (stereo not drawn) | inconclusive: 31.6 µM [inhibitor, partial curve, poor fit]
25 | COc1ccc(NC(=O)c2cc(CN3C(=O)c4ccccc4C3=O)ccc2OC)cn1 | inconclusive: 3.16 µM [inhibitor, single point]
26 | CCCCn1c(CNC(=O)C23CC4CC(CC(C4)C2)C3)nnc1SCC(=O)Nc1ccccc1 | inactive
27 | Cc1ncc(COC(=O)C(C)C)c2cc(C(=O)Nc3ccccc3C(F)(F)F)c(=O)oc12 | inconclusive: 89.1 µM [inhibitor, single point]
28 | NC(=O)SCC(=O)Nc1cccc(Cl)c1 | inconclusive: 7.08 µM [inhibitor, partial curve, poor fit]
29 | CNCCCOc1cc2nc(N3CCCN(C)CC3)nc(NC3CCN(C)CC3)c2cc1OC | inconclusive: 22.4 µM [inhibitor, full curve]
30 | CCOC(=O)c1ccc(N2CCOCC2)c(NC(=O)c2ccc3c(c2)OCO3)c1 | inactive
31 | Cc1ccc(N/C=C(/C#N)c2ccsc2)cc1C | inconclusive: 39.8 µM [inhibitor, single point]
32 | Oc1c(Br)cc(Br)cc1CNc1cccc2cccnc12 | inconclusive: 7.94 µM [inhibitor, partial curve, poor fit]
33 | COC(=O)c1ccccc1NC(=O)c1ccc2c(c1)CCN2S(=O)(=O)c1ccc(C)cc1 | inactive
34 | Cc1nc(NCCC(C)C)c2nnn(Cc3ccccc3)c2n1 | inconclusive: 100 µM [inhibitor, single point]
35 | Cn1c(=O)n(Cc2ccco2)c(=N)c2c3c(sc21)CCC3 | inconclusive: 100 µM [inhibitor, single point]
36 | CCC(C(=O)NCc1ccc(C)cc1)c1ccccc1 (stereo not drawn) | inactive
37 | C/C(CC1CC(COCC(C)C)OC1=O)=N\Nc1nc(-c2ccccc2)cs1 (stereo not drawn) | inconclusive: 31.6 µM [inhibitor, single point]
38 | CCCCCCCCC(=O)N/N=C(\C)c1cccnc1 | inconclusive: 17.8 µM [inhibitor, single point]
39 | Cc1ccc(S(=O)(=O)NCCN2CCN(S(=O)(=O)c3ccccc3Cl)CC2)cc1 | inactive
40 | C=CCN1C=C/C(=C\C=C(C#N)C#N)c2ccccc21 | inconclusive: 31.6 µM [inhibitor, partial curve, poor fit]
41 | CCc1cccc(C)c1NC(=O)CN1C(=O)c2c(c3ccccc3n2C)C1c1ccc(OC)cc1 (stereo not drawn) | inactive
42 | COCCc1nn2c(=O)cc(COC(=O)c3cccs3)nc2s1 | inconclusive: 89.1 µM [inhibitor, single point]
43 | Cc1ccc(CN(C(=O)COc2ccc(C(C)(C)C)cc2)C2CCS(=O)(=O)C2)o1 (stereo not drawn) | inactive
44 | COc1ccc(-c2nc(CCNC(=O)c3cccs3)cs2)cc1OC | inactive
45 | O=C(CN1CCN(c2ccccc2O)CC1)NC(=O)NCc1ccco1 | inconclusive: 112 µM [inhibitor, partial curve, poor fit]
46 | Cc1ccc(/C=N/N(Cc2ccccc2)c2ccccc2)o1 | inconclusive: 1 µM [inhibitor, full curve, poor fit]

Row | Structure (SMILES) | Potency
47 | CCc1cccc(NC(=O)c2nc(-c3ccncc3)no2)c1 | inactive
48 | COc1ccc(-c2cc(C(=O)OCc3ccccn3)c3ccccc3n2)cc1 | inconclusive: 31.6 µM [inhibitor, partial curve]
49 | Cc1ccc(NCc2cccn2-c2nnc(N3CCC(C(=O)NCCc4ccccc4)CC3)s2)cc1 | inactive
50 | c1nc(NC2CCCCCC2)c2[nH]cnc2n1 | inconclusive: 100 µM [inhibitor, single point]
51 | CC/C=C/C(=O)N1CC2(CC(c3cccc(NC(=O)CC)c3)=NO2)C[C@H]1C(N)=O (stereo partly drawn) | inactive
52 | C=CCn1c(=O)c(CCC(=O)Nc2ccc(N3CCOCC3)cc2)nc2cc(C(F)(F)F)ccc21 | inconclusive: 11.2 µM [inhibitor, partial curve, poor fit]
53 | O=C(c1ccccc1F)N1CCCC(c2ccccc2)C1 (stereo not drawn) | inconclusive: 89.1 µM [inhibitor, single point]
54 | CCCSc1nc2sc3c(c2c(=O)[nH]1)CCN(Cc1ccccc1)C3 | inactive
55 | CCOC(=O)CSc1nc(N)c(C#N)cc1C#N | inconclusive: 8.91 µM [inhibitor, full curve, poor fit]
56 | Clc1ccccc1CSc1nnc(Cn2cnc3ccccc32)n1-c1ccccc1 | inconclusive: 44.7 µM [inhibitor, partial curve, poor fit]
57 | CN(Cc1ccccc1)C(=O)Cn1ncc2c3ccccc3n(Cc3cccc(Cl)c3)c2c1=O | inactive
58 | CCOc1ccc(/C=C2/SC(=S)N(C(C(=O)O)c3ccccc3)C2=O)cc1OCC (stereo not drawn) | inconclusive: 89.1 µM [inhibitor, partial curve, poor fit]
59 | COc1ccc(NC(=O)CN(c2ccc([N+](=O)[O-])cc2)S(=O)(=O)c2ccccc2)cc1 | inactive
60 | COc1ccc(CC(=O)N2CCCc3ccccc32)cc1OC | active: 89.1 µM
61 | CCC(CO)Oc1cc(NC(=O)c2ccccc2C)c2ncn(C(C)C)c2c1 (stereo not drawn) | inconclusive: 35.5 µM [inhibitor, single point]
62 | CCS(=O)(=O)N1CCCC(C(=O)NC2CCCC2)C1 (stereo not drawn) | inconclusive: 89.1 µM [inhibitor, partial curve, poor fit]
63 | COc1cc(CCC(=O)NCc2ccc3c(c2)CCN3C(=O)c2cccc(C)c2)cc(OC)c1OC | inactive
64 | Cc1c([N+](=O)[O-])cnc2ccccc12 | inactive
65 | Cc1ccc2c(c1)c1nnc(SCC(=O)Nc3ccc(N(C)C)cc3)nc1n2CC(=O)O | inconclusive: 11.2 µM [inhibitor, partial curve, poor fit]
66 | CC(C)(C)c1ccc(C(=O)N2CC(=O)Nc3ccc(F)cc3C2c2ccc(F)cc2)cc1 (stereo not drawn) | inactive
67 | CCOC(=O)C1=C(c2ccccc2)N=c2s/c(=C\c3cc(OC)c(OC)c(OC)c3)c(=O)n2C1c1cccs1 (stereo not drawn) | inconclusive: 112 µM [inhibitor, partial curve, poor fit]
68 | O=C1S/C(=C\c2ccc(O)c([N+](=O)[O-])c2)C(=O)N1c1ccccc1Cl | inconclusive: 44.7 µM [inhibitor, partial curve]
